Source: publication doi:10.1101/2023.07.13.548819
These are yes or no findings as the source states them, for the method shown. For part of these data: Binding seen in cells or lysates may run through a third protein. Some binding calls cover weakened binding; strength is not graded here.

The chains behind the UniProt entries cited, without tags or fusion partners. Where a name states a change or a piece, a line headed by the entry shows the natural chain unless it says otherwise. Residues count along the entry.
UniProt Q12846, whole entry, looked up, stated change not applied: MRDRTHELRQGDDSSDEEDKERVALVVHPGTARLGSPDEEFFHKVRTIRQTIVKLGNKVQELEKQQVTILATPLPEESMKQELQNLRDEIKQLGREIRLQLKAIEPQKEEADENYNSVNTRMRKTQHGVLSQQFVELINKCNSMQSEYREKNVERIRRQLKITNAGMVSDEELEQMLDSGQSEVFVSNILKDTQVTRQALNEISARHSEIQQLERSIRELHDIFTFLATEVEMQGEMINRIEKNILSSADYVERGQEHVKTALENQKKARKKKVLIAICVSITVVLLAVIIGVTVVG
UniProt P70452, whole entry: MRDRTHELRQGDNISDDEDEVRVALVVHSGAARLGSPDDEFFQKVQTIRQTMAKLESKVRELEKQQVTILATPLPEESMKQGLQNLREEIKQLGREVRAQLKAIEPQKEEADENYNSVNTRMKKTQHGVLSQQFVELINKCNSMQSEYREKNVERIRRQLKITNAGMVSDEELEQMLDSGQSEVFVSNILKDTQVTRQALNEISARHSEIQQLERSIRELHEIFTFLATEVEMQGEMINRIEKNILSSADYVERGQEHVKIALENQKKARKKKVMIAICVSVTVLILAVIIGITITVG
UniProt Q15836, whole entry, looked up, stated change not applied: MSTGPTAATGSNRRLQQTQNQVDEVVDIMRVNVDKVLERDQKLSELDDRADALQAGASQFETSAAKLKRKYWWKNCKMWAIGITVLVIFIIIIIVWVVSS
UniProt Q15836, 1-77: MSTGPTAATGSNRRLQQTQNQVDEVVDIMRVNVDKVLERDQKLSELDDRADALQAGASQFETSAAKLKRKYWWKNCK
UniProt P63024, whole entry, looked up, stated change not applied: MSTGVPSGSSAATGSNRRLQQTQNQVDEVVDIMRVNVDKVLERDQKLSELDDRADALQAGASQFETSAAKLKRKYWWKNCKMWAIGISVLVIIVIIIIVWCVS

Legend:
[1] = biological target: preformed acceptor complex of SNAP23, cytosolic fragment of STX4 and VAMP2(49-96) (UniProt Q12846); experiment: SDS-resistant SNARE complex formation
[2] = biological target: mouse STX4 C-terminally fused with mCitrine (mouse) (UniProt P70452); experiment: FRET or BRET
[3] = biological target: cytosolic fragment of human STX4 (residues 1-271 with 272C) (human) (UniProt Q12846); experiment: SEC

Molecule	binding [1]	binding [2]	further results
cytosolic fragment of human VAMP3 S44A (residues 1-77) (from UniProt Q15836 1-77) (domain or fragment)	binds	–	–
cytosolic fragment of human VAMP3 WT (residues 1-77) (from UniProt Q15836 1-77) (domain or fragment)	binds	–	–
SNAP23 (protein, UniProt O00161 1-211) MDNLSSEEIQQRAHQITDESLESTRRILGLAIESQDAGIKTITMLDEQKEQLNRIEEGLDQINKDMRETEKTLTELNKCCGLCVCPCNRTKNFESGKAYKTTWGDGGENSPCNVVSKQPGPVTNGQLQQPTTGAASGGYIKRITNDAREDEMEENLTQVGSILGNLKDMALNIGNEIDAQNPQIKRITDKADTNRDRIDIANARAKKLIDS	–	–	binding [3]: binds

Further lines, with some results ahead:

binding [1]	binding [2]	Molecule	further results
binds	–	cytosolic fragment of human VAMP3 S44E (residues 1-77) (from UniProt Q15836 1-77) (domain or fragment)	–
–	binds	mouse VAMP3 S48A (phosphodead) C-terminally fused with mCherry (from UniProt P63024 1-103)	–
–	binds	mouse VAMP3 S48E (phosphomimetic) C-terminally fused with mCherry (from UniProt P63024 1-103)	–
